No constants are given. Whether binding was seen depends on the method and setting. Binding seen in cells or lysates may run through a third protein. Some binding calls cover weakened binding; strength is not graded here. Tags and fused reporters may be left off the sequences shown.
T1: V5 tagged ERG (UniProt P81270)
T1 sequence: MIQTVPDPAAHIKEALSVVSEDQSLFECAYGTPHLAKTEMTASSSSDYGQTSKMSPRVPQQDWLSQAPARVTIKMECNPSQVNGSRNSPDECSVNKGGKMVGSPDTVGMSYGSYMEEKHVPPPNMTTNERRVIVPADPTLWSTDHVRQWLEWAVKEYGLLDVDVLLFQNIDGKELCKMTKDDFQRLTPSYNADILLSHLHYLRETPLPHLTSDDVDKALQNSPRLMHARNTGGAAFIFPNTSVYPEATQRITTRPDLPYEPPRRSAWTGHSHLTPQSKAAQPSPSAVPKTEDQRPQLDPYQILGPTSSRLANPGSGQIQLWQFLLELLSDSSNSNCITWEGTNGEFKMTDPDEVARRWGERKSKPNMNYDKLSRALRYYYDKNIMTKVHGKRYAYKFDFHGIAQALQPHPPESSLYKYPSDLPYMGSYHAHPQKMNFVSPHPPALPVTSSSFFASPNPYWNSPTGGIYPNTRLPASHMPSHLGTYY

The chains behind the UniProt entries cited, without tags or fusion partners.
UniProt Q02085: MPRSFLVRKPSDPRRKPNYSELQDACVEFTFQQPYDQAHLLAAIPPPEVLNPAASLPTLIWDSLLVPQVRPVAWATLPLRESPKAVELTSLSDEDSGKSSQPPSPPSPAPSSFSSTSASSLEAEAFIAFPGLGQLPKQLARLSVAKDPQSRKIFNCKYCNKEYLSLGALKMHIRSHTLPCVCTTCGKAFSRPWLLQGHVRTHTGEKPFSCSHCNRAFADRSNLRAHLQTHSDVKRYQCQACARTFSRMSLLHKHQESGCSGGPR

T2: TWIST1 (UniProt P26687)
T2 sequence: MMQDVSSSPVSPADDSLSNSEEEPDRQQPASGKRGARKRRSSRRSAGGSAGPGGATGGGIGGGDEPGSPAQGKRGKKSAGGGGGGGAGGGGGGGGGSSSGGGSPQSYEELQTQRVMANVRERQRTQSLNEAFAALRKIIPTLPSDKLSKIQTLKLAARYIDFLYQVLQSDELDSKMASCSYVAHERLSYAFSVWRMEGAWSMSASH


How the values were obtained:
Experiment in all cases: co-IP
V5 tagged ERG = biological target: T1, V5 tagged ERG
TWIST1 = biological target: T2, TWIST1
SNAI1 = SNAI1 (UniProt Q02085)

Row | binding (V5 tagged ERG) | binding (TWIST1) | binding (SNAI1) | Molecule
1 | binds |  |  | SNAI1 (from UniProt Q02085 1-264)
2 | binds |  |  | TWIST1 (protein, UniProt P26687 1-206) MMQDVSSSPVSPADDSLSNSEEEPDRQQPASGKRGARKRRSSRRSAGGSAGPGGATGGGIGGGDEPGSPAQGKRGKKSAGGGGGGGAGGGGGGGGGSSSGGGSPQSYEELQTQRVMANVRERQRTQSLNEAFAALRKIIPTLPSDKLSKIQTLKLAARYIDFLYQVLQSDELDSKMASCSYVAHERLSYAFSVWRMEGAWSMSASH
3 |  | binds | binds | V5 tagged ERG (protein, UniProt P81270 1-486) MIQTVPDPAAHIKEALSVVSEDQSLFECAYGTPHLAKTEMTASSSSDYGQTSKMSPRVPQQDWLSQAPARVTIKMECNPSQVNGSRNSPDECSVNKGGKMVGSPDTVGMSYGSYMEEKHVPPPNMTTNERRVIVPADPTLWSTDHVRQWLEWAVKEYGLLDVDVLLFQNIDGKELCKMTKDDFQRLTPSYNADILLSHLHYLRETPLPHLTSDDVDKALQNSPRLMHARNTGGAAFIFPNTSVYPEATQRITTRPDLPYEPPRRSAWTGHSHLTPQSKAAQPSPSAVPKTEDQRPQLDPYQILGPTSSRLANPGSGQIQLWQFLLELLSDSSNSNCITWEGTNGEFKMTDPDEVARRWGERKSKPNMNYDKLSRALRYYYDKNIMTKVHGKRYAYKFDFHGIAQALQPHPPESSLYKYPSDLPYMGSYHAHPQKMNFVSPHPPALPVTSSSFFASPNPYWNSPTGGIYPNTRLPASHMPSHLGTYY

Source: paper doi:10.1101/2021.05.12.443777
